These are yes or no findings as the source states them, for the method shown. Binding seen in cells or lysates may run through a third protein. A yes stands for co-enrichment or nearness to the bait. Other partners may have been found.
Molecular target: T1, syntaxin 6 (Stx6), full-length, reconstituted in liposomes (Rattus norvegicus) (UniProt Q63635)
T1 sequence: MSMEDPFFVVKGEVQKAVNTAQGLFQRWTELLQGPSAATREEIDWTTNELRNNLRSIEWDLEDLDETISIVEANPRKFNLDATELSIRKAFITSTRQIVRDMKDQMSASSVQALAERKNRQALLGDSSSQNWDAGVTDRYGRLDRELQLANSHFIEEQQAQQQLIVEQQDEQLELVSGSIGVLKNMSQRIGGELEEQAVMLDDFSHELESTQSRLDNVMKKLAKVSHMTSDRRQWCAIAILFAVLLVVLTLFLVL
Assay: affinity purification with mass spectrometry; SNARE-containing proteoliposomes incubated with HeLa cytosol fraction 30 min at 37 °C; liposomes separated (flotation gradient in the results, streptavidin Dynabeads via biotinyl Cap PE in the methods), washed with HB150 (150 mM KCl, 20 mM HEPES pH 7.5); bound proteins identified by proteomics; only the target purified

- binding: binds
B1: Vps51 (protein, UniProt Q9UID3 1-782)
chain: MAAAAAAGPSPGSGPGDSPEGPEGEAPERRRKAHGMLKLYYGLSEGEAAGRPAGPDPLDPTDLNGAHFDPEVYLDKLRRECPLAQLMDSETDMVRQIRALDSDMQTLVYENYNKFISATDTIRKMKNDFRKMEDEMDRLATNMAVITDFSARISATLQDRHERITKLAGVHALLRKLQFLFELPSRLTKCVELGAYGQAVRYQGRAQAVLQQYQHLPSFRAIQDDCQVITARLAQQLRQRFREGGSGAPEQAECVELLLALGEPAEELCEEFLAHARGRLEKELRNLEAELGPSPPAPDVLEFTDHGGSGFVGGLCQVAAAYQELFAAQGPAGAEKLAAFARQLGSRYFALVERRLAQEQGGGDNSLLVRALDRFHRRLRAPGALLAAAGLADAATEIVERVARERLGHHLQGLRAAFLGCLTDVRQALAAPRVAGKEGPGLAELLANVASSILSHIKASLAAVHLFTAKEVSFSNKPYFRGEFCSQGVREGLIVGFVHSMCQTAQSFCDSPGEKGGATPPALLLLLSRLCLDYETATISYILTLTDEQFLVQDQFPVTPVSTLCAEARETARRLLTHYVKVQGLVISQMLRKSVETRDWLSTLEPRNVRAVMKRVVEDTTAIDVQVGLLYEEGVRKAQSSDSSKRTFSVYSSSRQQGRYAPSYTPSAPMDTNLLSNIQKLFSERIDVFSPVEFNKVSVLTGIIKISLKTLLECVRLRTFGRFGLQQVQVDCHFLQLYLWRFVADEELVHLLLDEVVASAALRCPDPVPMEPSVVEVICERG

Reference: PMC6453939
